Earlier results as cited in patent publication US7645802B2 (Biovail Laboratories International SRL., priority 2005, dated 2010).
Where two headings read alike, the source gives them in different places. At least one compound was matched to its structure with a doubt left. Some entries share one result that the patent states for a list of compounds.

Settings: cited from earlier work
[1] = Sterol and Sterol Derivative Surfactants (Table 90)

| Compound | HLB [1] | HLB (Mono- and Diglyceride Surfactants (Table 89)) |
| --- | --- | --- |
| CC(C)CCC[C@@H](C)[C@H]1CC[C@H]2[C@@H]3CC=C4C[C@@H](O)CC[C@]4(C)[C@H]3CC[C@]12C [Cholesterol] | <10 | – |
| CCCCCCCCCCCCCCCCCC(=O)OCC(O)CO (stereo not shown) [Glyceryl monostearate] | – | 4.4 |
| CC(C)=CCC[C@@H](C)[C@H]1CC[C@@]2(C)C3=C(CC[C@]12C)[C@@]1(C)CC[C@H](O)C(C)(C)[C@@H]1CC3 [lanosterol] | <10 | – |
| sitosterol | <10 | – |
